Publication PMC12699821, “STARD4 suppresses tumorigenesis and attenuates enzalutamide resistance via lipid metabolic reprogramming and AR stabilization in prostate cancer” (Journal of Experimental & Clinical Cancer Research : CR, 2025)
No constants are given. Whether binding was seen depends on the method and setting. In cells and extracts the contact can be indirect. Some results given as binding are weak or reduced against the parent protein; the word gives no strength. For some assays here: Sequences can lack the tags named with a protein.

Protein sequences, listed by entry. Tags and fused reporters are not part of them.
UniProt O95155: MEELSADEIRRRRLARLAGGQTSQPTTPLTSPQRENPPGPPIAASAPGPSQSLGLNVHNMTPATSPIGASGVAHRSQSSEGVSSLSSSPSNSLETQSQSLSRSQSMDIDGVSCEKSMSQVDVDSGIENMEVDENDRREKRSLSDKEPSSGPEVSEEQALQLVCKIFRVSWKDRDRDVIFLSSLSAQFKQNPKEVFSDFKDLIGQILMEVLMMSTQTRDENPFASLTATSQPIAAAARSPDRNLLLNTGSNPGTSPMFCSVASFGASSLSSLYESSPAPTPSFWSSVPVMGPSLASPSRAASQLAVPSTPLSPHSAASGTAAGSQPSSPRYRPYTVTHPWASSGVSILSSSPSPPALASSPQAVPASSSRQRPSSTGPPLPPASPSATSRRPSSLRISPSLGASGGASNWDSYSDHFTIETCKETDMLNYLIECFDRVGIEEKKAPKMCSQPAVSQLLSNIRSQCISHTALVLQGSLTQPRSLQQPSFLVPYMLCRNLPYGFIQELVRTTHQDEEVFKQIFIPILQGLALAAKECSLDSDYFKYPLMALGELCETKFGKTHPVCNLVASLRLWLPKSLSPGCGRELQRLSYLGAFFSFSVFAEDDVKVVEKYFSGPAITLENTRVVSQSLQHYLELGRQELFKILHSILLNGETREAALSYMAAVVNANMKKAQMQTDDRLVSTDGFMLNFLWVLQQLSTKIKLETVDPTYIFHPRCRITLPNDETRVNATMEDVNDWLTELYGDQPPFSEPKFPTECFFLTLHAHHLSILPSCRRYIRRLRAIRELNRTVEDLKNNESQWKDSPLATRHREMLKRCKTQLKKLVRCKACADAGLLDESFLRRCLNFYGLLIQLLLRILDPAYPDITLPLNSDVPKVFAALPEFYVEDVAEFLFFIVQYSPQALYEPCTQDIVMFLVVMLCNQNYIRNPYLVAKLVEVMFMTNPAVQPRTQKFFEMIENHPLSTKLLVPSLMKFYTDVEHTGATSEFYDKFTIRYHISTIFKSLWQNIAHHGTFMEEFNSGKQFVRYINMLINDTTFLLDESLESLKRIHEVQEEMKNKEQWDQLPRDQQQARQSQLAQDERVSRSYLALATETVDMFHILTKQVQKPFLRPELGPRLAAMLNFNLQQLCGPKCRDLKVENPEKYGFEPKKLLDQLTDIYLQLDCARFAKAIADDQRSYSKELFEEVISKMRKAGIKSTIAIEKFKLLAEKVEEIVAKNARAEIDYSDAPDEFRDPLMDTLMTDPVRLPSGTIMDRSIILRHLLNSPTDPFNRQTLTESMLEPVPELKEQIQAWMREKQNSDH
UniProt P10275: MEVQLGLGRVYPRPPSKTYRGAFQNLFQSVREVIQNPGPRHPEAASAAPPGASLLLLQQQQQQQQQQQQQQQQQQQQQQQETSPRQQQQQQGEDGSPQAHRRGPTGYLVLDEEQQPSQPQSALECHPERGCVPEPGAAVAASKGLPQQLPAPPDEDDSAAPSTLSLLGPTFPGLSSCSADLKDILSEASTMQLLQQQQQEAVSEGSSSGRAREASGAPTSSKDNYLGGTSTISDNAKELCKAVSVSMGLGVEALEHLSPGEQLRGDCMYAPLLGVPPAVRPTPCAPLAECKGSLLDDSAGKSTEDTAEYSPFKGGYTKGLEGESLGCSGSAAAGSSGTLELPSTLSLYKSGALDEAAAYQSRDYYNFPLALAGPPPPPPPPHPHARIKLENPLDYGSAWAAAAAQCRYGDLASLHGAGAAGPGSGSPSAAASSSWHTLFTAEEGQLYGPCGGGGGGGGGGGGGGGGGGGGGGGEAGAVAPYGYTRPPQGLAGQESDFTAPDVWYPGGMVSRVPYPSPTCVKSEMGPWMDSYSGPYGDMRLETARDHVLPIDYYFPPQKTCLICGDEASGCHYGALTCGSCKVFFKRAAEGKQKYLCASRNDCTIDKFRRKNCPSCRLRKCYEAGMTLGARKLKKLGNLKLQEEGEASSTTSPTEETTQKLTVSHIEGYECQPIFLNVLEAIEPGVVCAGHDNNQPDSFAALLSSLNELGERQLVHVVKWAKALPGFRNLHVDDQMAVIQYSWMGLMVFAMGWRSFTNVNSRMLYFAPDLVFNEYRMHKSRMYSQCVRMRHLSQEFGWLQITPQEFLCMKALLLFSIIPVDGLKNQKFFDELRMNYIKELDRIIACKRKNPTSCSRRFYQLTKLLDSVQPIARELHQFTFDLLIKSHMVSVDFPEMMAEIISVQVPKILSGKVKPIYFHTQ

Columns and labels:
[1] = target: UBE4B, endogenous (human (endogenous in 22Rv1 and C4-2)) (UniProt O95155); experiment: co-IP; 22Rv1 cells with STARD4 overexpression plasmid and C4-2 cells with STARD4 knockdown plasmid; IP with IgG or an anti-UBE4B antibody, western blotting
[2] = target: Flag-tagged UBE4B (human) (UniProt O95155); experiment: co-IP; 22Rv1 cell lysates immunoprecipitated with an anti-Flag antibody (Flag-UBE4B or Flag-FANCG), western blotting for STARD4 and AR
[3] = target: Androgen receptor (AR), endogenous (human (endogenous in 22Rv1 and C4-2)) (UniProt P10275); experiment: co-IP; 22Rv1 and C4-2 whole-cell lysates, IP with STARD4, AR or IgG antibodies overnight at 4 °C, magnetic beads, western blotting
[4] = target: Flag-tagged AR (full-length) (human (Gene ID 367 is the human gene)) (UniProt P10275); experiment: co-IP; 293T cells transfected with HA-labelled STARD4 and Flag-labelled AR or AR domain plasmids, western blotting

Molecule: Androgen receptor (AR), endogenous (from UniProt P10275 1-920)
- binding [1]: binds
- binding [2]: binds

B1: StAR-related lipid transfer domain protein 4 (STARD4), endogenous (protein, UniProt Q96DR4 1-205)
chain: MEGLSDVASFATKLKNTLIQYHSIEEDKWRVAKKTKDVTVWRKPSEEFNGYLYKAQGVIDDLVYSIIDHIRPGPCRLDWDSLMTSLDILENFEENCCVMRYTTAGQLWNIISPREFVDFSYTVGYKEGLLSCGISLDWDEKRPEFVRGYNHPCGWFCVPLKDNPNQSLLTGYIQTDLRGMIPQSAVDTAMASTLTNFYGDLRKAL
- binding [3]: binds
- binding [2]: binds

B2: HA-tagged STARD4 (protein, UniProt Q96DR4 1-205)
chain: MEGLSDVASFATKLKNTLIQYHSIEEDKWRVAKKTKDVTVWRKPSEEFNGYLYKAQGVIDDLVYSIIDHIRPGPCRLDWDSLMTSLDILENFEENCCVMRYTTAGQLWNIISPREFVDFSYTVGYKEGLLSCGISLDWDEKRPEFVRGYNHPCGWFCVPLKDNPNQSLLTGYIQTDLRGMIPQSAVDTAMASTLTNFYGDLRKAL
- binding [4]: binds
